Paper doi:10.1101/2025.05.19.654826
Where two headings read alike, the source gives them in different places. Results are given in words; binding and its absence hold for the method and conditions named. In cells and extracts the contact can be indirect. Some results given as binding are weak or reduced against the parent protein; the word gives no strength. Tags and fused reporters may be left off the sequences shown.

Sequences of proteins named here, by UniProt entry; tags and fusion partners are left off.
UniProt P0A3F4: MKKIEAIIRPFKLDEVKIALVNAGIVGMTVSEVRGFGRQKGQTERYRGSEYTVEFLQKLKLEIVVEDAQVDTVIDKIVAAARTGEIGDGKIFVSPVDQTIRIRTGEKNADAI

Columns and labels:
Test in all cases: split reporter
[1] = biological target: T1, NtcA-LgBiT fusion protein (Synechococcus elongatus PCC 7942) (UniProt P29283)
T1 sequence: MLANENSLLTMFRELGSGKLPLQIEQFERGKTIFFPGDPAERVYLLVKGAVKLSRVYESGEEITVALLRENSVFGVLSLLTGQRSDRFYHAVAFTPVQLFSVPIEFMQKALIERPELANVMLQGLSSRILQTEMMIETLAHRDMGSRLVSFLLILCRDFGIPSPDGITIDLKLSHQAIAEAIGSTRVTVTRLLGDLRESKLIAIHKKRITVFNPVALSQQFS

[2] = biological target: T2, EngA-LgBiT fusion protein (Synechococcus elongatus PCC 7942) (UniProt Q31KP9)
T2 sequence: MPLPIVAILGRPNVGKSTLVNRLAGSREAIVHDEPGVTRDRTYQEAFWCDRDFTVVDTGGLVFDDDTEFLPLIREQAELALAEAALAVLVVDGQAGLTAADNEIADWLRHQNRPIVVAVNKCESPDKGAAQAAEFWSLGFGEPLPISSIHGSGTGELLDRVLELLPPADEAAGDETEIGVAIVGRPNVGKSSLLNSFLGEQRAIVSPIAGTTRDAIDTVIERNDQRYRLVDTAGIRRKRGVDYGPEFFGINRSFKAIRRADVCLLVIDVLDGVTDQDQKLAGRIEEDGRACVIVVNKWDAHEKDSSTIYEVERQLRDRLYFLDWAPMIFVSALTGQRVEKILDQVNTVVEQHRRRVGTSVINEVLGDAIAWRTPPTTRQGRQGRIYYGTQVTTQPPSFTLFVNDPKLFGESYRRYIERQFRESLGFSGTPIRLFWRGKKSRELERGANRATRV

[3] = biological target: T1, NtcA-LgBiT fusion protein (Synechococcus elongatus PCC 7942); remark: listed apart in the source
[4] = biological target: PII-LgBiT fusion protein (Synechococcus elongatus PCC 7942) (UniProt P0A3F4)

B1: PipX-SmBiT fusion protein (protein, UniProt Q7X386 1-89)
chain: MASENYLNHPTFGLLYQICSFGDSKELFATLYAQRLFFLVAFDARGTRFEPIGRNEARMLVDNRLRQLRRDASLQEYNQLQQVFKQTFL
With B1 the binding [1] was “binds weakly”, the binding [2] was “binds” and the binding [3] was “binds”. The binding [4] was “binds”.
